Data on three substances can be found in paper PMC12696947.

By UniProt entry, the sequences of proteins in these tests, tags left out.
UniProt Q92585: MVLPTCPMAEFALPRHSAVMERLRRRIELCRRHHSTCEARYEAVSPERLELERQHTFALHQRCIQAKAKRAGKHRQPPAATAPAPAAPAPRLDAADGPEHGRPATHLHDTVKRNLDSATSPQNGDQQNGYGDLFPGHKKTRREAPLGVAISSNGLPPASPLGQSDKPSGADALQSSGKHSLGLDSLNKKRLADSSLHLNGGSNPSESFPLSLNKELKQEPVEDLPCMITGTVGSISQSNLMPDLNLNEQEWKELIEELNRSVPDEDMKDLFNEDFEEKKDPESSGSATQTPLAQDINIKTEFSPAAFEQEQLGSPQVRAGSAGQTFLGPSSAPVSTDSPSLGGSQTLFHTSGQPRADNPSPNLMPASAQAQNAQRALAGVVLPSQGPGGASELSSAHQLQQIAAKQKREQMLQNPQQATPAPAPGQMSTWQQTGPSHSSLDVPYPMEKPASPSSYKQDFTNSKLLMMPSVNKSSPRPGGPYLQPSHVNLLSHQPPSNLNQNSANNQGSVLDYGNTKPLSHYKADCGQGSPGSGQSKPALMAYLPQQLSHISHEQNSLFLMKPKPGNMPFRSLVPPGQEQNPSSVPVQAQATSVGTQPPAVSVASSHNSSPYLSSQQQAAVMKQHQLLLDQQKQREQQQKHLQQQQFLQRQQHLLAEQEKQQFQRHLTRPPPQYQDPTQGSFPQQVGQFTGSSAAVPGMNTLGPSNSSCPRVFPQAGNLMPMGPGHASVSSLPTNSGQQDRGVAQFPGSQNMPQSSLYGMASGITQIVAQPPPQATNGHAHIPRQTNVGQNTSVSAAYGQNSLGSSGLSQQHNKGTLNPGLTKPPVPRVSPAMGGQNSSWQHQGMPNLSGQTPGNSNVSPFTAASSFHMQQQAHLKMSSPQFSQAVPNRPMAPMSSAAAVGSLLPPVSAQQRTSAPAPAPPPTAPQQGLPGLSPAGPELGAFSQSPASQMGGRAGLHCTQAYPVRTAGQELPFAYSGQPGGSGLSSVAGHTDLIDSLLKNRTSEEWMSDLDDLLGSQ
UniProt P40763: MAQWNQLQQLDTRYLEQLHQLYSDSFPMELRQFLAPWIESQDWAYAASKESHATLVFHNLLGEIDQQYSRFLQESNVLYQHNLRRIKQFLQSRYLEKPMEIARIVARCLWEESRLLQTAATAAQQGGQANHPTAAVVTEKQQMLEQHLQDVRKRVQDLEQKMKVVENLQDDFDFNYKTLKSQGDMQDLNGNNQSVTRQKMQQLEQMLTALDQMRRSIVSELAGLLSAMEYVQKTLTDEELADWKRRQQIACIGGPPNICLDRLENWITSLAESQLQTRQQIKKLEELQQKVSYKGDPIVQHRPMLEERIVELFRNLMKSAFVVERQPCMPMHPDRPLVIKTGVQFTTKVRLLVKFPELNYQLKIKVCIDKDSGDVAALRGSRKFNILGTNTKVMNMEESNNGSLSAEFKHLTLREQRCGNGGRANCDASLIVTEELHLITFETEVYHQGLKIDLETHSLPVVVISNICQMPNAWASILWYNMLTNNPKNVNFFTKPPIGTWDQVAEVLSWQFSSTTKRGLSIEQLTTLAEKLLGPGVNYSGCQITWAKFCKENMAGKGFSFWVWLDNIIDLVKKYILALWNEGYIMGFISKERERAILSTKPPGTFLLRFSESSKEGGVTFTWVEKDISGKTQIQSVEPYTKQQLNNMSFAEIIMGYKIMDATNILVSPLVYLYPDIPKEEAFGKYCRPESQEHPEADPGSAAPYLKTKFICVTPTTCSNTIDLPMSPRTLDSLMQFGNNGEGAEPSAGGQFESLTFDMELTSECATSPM
UniProt Q09472: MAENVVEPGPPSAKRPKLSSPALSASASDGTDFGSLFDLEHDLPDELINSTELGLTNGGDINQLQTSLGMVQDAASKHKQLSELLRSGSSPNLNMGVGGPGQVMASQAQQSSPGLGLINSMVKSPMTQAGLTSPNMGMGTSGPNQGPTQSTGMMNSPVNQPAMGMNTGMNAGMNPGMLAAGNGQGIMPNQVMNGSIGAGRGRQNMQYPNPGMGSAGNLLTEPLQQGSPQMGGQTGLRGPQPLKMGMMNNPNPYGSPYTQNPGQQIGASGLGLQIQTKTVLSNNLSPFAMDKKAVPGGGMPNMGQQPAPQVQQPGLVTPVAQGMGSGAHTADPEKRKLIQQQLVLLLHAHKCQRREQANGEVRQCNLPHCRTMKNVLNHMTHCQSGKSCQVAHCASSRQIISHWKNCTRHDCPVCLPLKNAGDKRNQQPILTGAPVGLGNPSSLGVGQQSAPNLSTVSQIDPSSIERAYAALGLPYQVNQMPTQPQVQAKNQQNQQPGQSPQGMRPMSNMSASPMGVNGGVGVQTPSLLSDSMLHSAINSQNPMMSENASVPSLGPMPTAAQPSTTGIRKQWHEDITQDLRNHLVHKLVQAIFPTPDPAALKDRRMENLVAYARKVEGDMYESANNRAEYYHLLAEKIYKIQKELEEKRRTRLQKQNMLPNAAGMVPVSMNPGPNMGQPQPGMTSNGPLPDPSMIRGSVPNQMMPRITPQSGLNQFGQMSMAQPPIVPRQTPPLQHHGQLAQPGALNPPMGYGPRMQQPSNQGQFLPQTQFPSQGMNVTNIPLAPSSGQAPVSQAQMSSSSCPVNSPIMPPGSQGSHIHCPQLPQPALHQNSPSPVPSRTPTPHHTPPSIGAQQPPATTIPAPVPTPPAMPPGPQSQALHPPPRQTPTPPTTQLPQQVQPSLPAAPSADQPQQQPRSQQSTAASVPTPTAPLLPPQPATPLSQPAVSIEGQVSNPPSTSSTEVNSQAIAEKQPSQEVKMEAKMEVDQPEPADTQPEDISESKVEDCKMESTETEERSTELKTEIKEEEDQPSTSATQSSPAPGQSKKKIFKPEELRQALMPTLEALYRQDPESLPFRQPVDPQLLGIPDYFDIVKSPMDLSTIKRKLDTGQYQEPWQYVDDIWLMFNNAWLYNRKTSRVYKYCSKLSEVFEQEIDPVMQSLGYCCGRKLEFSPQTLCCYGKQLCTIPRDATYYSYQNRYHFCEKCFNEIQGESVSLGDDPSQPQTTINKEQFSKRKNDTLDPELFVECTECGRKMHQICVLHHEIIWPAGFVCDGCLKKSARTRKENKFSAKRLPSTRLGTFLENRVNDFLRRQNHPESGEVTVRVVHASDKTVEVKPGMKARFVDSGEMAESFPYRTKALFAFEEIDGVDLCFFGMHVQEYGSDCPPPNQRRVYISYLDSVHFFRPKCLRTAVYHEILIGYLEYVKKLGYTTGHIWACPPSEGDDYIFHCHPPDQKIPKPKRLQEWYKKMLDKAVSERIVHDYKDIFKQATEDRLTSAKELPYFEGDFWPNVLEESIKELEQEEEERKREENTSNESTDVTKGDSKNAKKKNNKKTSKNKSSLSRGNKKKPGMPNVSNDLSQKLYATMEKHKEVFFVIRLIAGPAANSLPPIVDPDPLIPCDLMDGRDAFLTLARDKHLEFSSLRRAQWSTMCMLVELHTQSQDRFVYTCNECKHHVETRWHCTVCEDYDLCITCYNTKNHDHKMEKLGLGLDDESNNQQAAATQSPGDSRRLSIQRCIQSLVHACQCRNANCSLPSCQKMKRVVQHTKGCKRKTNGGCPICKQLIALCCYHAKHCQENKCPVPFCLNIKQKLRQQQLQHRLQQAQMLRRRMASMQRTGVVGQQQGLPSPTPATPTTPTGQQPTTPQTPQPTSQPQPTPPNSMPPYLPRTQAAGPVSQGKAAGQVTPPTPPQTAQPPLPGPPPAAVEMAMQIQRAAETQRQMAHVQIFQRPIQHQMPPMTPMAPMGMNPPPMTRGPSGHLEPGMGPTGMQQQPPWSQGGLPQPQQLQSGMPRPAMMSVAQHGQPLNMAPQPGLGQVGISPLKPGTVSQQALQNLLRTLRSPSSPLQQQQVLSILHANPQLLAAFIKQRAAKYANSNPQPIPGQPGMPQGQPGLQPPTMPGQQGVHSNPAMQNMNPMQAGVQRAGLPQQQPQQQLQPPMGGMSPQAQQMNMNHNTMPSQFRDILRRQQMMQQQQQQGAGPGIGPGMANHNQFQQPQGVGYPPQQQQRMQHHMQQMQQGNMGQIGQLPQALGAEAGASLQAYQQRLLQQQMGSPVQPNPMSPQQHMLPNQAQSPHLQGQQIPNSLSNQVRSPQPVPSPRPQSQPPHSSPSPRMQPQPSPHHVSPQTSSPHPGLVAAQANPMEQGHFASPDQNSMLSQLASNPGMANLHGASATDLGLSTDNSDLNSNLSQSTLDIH

Test [1] addresses MAML1 (endogenous) (human (endogenous in HepG2)) (UniProt Q92585). Description: co-IP; endogenous proteins; HepG2 lysate in IP lysis buffer, precleared with protein A-agarose, anti-STAT3 or anti-MAML1 antibody or rabbit IgG overnight at 4 °C, protein A-agarose, western blot. For orientation: Immunoblotting shows a protein as a band on a membrane.
The target in test [2] is HA-MAML1 (UniProt Q92585). Description: co-IP; exogenous MAML1 and STAT3 in HEK293T cells; immunoprecipitation and western blot.
For test [3], the target named is STAT3 (endogenous) (human (endogenous in HepG2)) (UniProt P40763). Description: co-IP; immunoprecipitation of the STAT3 complex, blot for p300 and acetyl-lysine; cells with MAML1 overexpression (Fig. 3G) or MAML1 knockdown (Fig. 3H); cell line not named for these panels.

Results are given in words; binding and its absence hold for the method and conditions named. In cells and extracts the contact can be indirect. Some binding calls cover weakened binding; strength is not graded here.

For “STAT3 (endogenous) (from UniProt P40763 1-770)”, in test [1], the binding entry is “binds”.
With Flag-STAT3 (from UniProt P40763 1-770), the binding entry in test [2] is recorded as “binds”.
In the case of p300 (from UniProt Q09472 1-2414), the binding entry in test [3] is recorded as “binds”.
